The values below come from patent US20130243753A1 (Genentech, published 2013).

Sequences of proteins named here, by UniProt entry; tags and fusion partners are left off. A change or cut given only in a name is not applied to a line headed by its entry.
UniProt P30530: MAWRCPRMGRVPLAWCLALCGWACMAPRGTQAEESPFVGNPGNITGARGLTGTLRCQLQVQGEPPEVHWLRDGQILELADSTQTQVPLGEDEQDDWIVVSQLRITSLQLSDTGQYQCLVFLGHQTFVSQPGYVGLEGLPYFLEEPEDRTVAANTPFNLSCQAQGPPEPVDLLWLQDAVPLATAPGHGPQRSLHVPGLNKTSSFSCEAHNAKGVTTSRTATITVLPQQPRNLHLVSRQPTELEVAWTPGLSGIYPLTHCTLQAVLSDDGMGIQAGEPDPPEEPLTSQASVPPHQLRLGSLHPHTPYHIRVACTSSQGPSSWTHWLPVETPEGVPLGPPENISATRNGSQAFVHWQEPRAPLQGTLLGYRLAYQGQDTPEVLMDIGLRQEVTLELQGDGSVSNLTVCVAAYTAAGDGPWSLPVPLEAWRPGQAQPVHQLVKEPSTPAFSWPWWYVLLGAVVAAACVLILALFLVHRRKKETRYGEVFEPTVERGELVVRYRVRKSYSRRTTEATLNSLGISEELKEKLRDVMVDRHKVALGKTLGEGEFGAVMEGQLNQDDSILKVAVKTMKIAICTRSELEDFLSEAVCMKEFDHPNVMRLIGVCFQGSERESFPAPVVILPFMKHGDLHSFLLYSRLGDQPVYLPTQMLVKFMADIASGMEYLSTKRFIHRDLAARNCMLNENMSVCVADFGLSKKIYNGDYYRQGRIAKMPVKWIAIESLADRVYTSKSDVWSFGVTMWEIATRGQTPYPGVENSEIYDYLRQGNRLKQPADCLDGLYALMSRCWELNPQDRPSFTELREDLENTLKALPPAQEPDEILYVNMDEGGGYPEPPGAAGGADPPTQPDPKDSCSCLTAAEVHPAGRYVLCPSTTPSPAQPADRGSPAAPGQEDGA

These are yes or no findings as the source states them, for the method shown. Some binding calls cover weakened binding; strength is not graded here.

The target of this test is human Axl on the cell surface (HUVEC, A549, H1299, Baf3Axl cells) (human) (UniProt P30530). In words: FACS on HUVEC; Gas6 on the cell surface detected with biotinylated anti-Gas6 and streptavidin-PE; Gas6 concentration not shown.

B1: Mouse recombinant Gas6 (ligand, UniProt Q61592 115-673, looked up)
chain: DQCTPNPCDKKGTHICQDLMGNFFCVCTDGWGGRLCDKDVNECVQKNGGCSQVCHNKPGSFQCACHSGFSLASDGQTCQDIDECTDSDTCGDARCKNLPGSYSCLCDEGYTYSSKEKTCQDVDECQQDRCEQTCVNSPGSYTCHCDGRGGLKLSPDMDTCEDILPCVPFSMAKSVKSLYLGRMFSGTPVIRLRFKRLQPTRLLAEFDFRTFDPEGVLFFAGGRSDSTWIVLGLRAGRLELQLRYNGVGRITSSGPTINHGMWQTISVEELERNLVIKVNKDAVMKIAVAGELFQLERGLYHLNLTVGGIPFKESELVQPINPRLDGCMRSWNWLNGEDSAIQETVKANTKMQCFSVTERGSFFPGNGFATYRLNYTRTSLDVGTETTWEVKVVARIRPATDTGVLLALVGDDDVVPISVALVDYHSTKKLKKQLVVLAVEDVALALMEIKVCDSQEHTVTVSLREGEATLEVDGTKGQSEVSTAQLQERLDTLKTHLQGSVHTYVGGLPEVSVISAPVTAFYRGCMTLEVNGKILDLDTASYKHSDITSHSCPPVEHAT
Take B1: the binding result is reported as “binds”.
